Results of single-concentration screens

The values are deposited in ChEMBL (CHEMBL3988442, “University of Dundee, Small-Polar-MMV Screening Library” (2021)).

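Whole-cell growth test on Mycobacterium tuberculosis, read after 3 days in glucose-containing 7H9 medium; the read-out is not stated. Compounds at 500 µM. Direction is inferred from retests: higher values go with more growth inhibition. About 18,000 compounds were tested under these conditions; 7.9% (about 1,400) showed 50% or more at least once.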

Results are given as percent effect.
How 0% and 100% were set is not recorded. Most values in the screen are low, and negative values occur.
The compounds are a random part of those screened.

* CCOc1ccc(NC(=O)CN2CCNCC2)cc1 : 30.61%
* C[C@@H](CO)NC(=O)c1cc(N(C)C)ccn1 : -2.281%
* CC(=O)N(CC(=O)OC(C)(C)C)C1CCCNCC1 (stereo not shown) : 6.66%
* OC1(C(F)(F)F)CCOCC1 : 6.246%
* COc1ccc2c(c1)CCCN2C(=O)CSC : 45.28%
* CC1Oc2ccc(NC(=O)c3ccco3)cc2NC1=O (stereo not shown) : 11.15%
* CC(C)C(=O)CNC(=O)C(O)c1ccccc1 (stereo not shown) : 21.76%
* CCOC(=O)N1CCN(C(=O)c2onc(C)c2Cl)CC1 : 36.1%
* Cc1csc(CCNC(=O)C2CCCO2)n1 (stereo not shown) : 11%
* COc1cc(S(=O)(=O)n2ccc(C)n2)c(OC)cc1C : 0.3374%
* COc1ccc2c(c1)CCCC(=O)N2 : 22.69%
* Cn1cc(C(=O)Nc2ccc3[nH]nnc3c2)ccc1=O : 10.9%
* CC(Cn1c(=O)[nH]c2ccccc2c1=O)N1CCCC1 (stereo not shown) : 70.6%
* CS(=O)(=O)Nc1cccc(CNC(=O)C2CCC2)c1 : 15.6%
* CC(C)(C)C(=O)N1CCN2C(=O)NCC2C1 (stereo not shown) : 4.709%
* NS(=O)(=O)c1ccc2c(c1)CCCC2=O : 43.17%
* O=C(CO)N1CCCC(CCc2ccccc2F)C1 (stereo not shown) : 62.66%
* N#CCOc1cccc(CN)c1 : 5.051%
* CC(C)n1nnnc1SCC(O)C(F)(F)F (stereo not shown) : 22.62%
* CN(C)c1cc([C@H]2C[C@@H](O)C2)nc(N)n1 : 2.259%
* Cc1noc(C)c1CCC(=O)NC(C)c1ccccn1 (stereo not shown) : 23.24%
* CC(=O)c1cccc(CN2CCCC(O)(CO)CC2)c1 (stereo not shown) : 0.3595%
* c1ccc(C2CNCCCO2)cc1 (stereo not shown) : 76.5%
* O=C1CCN(S(=O)(=O)N2CCCCC2)CCN1 : 4.934%
* CCc1cc(CNC(=O)NCc2cnn(C)c2)on1 : 14.08%
* CC(C)CCOC1CCN(C(=O)c2ccncc2)C1 (stereo not shown) : 25.92%
* NC1CC(=O)N(Cc2ccccc2C(F)(F)F)C1 (stereo not shown) : 5.343%
* CN(C)c1ccc(CNS(C)(=O)=O)cc1 : 8.789%
* Cc1cc(C)cc(NC(=O)CCN2CCSCC2)c1 : -14.56%
* NC(=O)CCNCCc1ccccc1 : 13.66%
* CCCC(=O)N1CCC2(CC1)NCCc1[nH]cnc12 : 6.318%
* CCC(C)c1cc(C(=O)Nc2ncccc2O)on1 (stereo not shown) : 76.68%
* CC(C)N(C)CC(=O)N1CCN(CC(C)(C)O)CC1 : 2.216%
* Cn1cc(C(O)C(=O)OCc2cccc(F)c2)cn1 (stereo not shown) : 5.031%
* CCN1CCN(Cc2cccc(OC)c2OC)CC1 : 6.417%
* CN(C)C(=O)N1CCC(C(=O)NCC2CC2)CC1 : 9.217%
* Cc1ccnc(NS(=O)(=O)c2cccs2)c1 : 14.83%
* NC(=O)CN(Cc1ccc(Br)cc1)C(=O)C1CCOC1 (stereo not shown) : 37.01%
* N#Cc1ccc(CCC(=O)NCc2cccnc2)cc1 : 16.69%
* COc1cc(CNCCO)c(Cl)cc1OCC(N)=O : -2.537%
* CSCCC(O)C(=O)NCCCn1ccnn1 (stereo not shown) : 5.237%